Some of the results follow. Residues, ends and D or L forms follow the SMILES beside them. *: point of attachment. Cbz = O=C(OCc1ccccc1)*
How the values were obtained:
Experiment in all cases: log2 fold change, soluble protein after heating vs DMSO (PISA); higher = thermal stabilisation; K562 cells, 10 uM, 30 min; active = over 0.2 and 3.5 SD of the protein, either way, in both replicates (recomputed)
[1] = compound: C#Cc1cccc(Nc2ncnc3cc(OCCOC)c(OCCOC)cc23)c1 [erlotinib]
Summary of the method: (§1)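 K562 cells at 2×10^6 cells/mL were given 10 μM compound for 30 min. Aliquots then went through 3 min of heating across 48°C-58°C, were pooled, and were extracted in PBS with 0.5% NP-40 at 4°C, and the supernatant after 21,000xg for 90 min was quantified by TMTpro 16plex LC-MS/MS with channel sums equalised. Thermal stability relative to control samples, from duplicates, is given as log2 fold change.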

The chains behind the UniProt entries cited, without tags or fusion partners. Where a name states a change or a piece, a line headed by the entry shows the natural chain unless it says otherwise.
UniProt Q7L099: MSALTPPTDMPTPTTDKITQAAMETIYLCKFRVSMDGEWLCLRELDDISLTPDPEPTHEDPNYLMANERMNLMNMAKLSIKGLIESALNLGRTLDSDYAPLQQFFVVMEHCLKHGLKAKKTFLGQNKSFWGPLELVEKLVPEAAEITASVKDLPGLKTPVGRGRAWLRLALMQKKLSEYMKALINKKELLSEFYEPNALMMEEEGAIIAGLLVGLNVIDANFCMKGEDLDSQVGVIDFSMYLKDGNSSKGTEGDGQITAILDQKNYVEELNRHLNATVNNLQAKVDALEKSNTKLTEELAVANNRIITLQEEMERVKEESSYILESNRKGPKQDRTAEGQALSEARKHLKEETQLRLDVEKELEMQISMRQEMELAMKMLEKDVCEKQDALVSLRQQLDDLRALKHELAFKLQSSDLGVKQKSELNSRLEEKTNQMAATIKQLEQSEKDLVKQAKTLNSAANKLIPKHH
UniProt Q9NRG7: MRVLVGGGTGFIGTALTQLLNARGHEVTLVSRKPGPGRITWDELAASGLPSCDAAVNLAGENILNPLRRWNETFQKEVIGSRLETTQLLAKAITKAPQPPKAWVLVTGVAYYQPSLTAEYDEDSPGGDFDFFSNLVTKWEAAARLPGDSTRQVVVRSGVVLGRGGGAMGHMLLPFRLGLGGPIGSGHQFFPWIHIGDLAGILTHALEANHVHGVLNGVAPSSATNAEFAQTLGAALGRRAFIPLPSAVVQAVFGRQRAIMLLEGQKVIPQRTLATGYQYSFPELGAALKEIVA
UniProt Q01196, whole entry, looked up: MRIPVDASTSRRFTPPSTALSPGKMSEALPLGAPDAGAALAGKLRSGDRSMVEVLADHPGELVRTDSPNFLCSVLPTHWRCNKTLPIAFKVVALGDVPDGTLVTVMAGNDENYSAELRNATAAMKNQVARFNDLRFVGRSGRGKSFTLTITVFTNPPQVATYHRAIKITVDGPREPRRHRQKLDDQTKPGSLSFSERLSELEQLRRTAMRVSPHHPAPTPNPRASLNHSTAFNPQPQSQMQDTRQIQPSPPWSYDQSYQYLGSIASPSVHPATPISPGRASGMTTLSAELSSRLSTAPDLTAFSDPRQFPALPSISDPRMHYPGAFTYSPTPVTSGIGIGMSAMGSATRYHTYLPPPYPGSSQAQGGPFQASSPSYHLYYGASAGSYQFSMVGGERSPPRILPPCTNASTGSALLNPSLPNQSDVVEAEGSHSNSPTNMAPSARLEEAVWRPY
UniProt Q9HCY8: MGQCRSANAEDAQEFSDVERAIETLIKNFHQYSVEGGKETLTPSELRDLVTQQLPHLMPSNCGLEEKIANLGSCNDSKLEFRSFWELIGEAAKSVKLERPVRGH

[2] = compound: C/C(=N\NC(=O)C1=CC(=CC=C1)S(=O)(=O)N2CCOCC2)/C3=C(C=CC(=C3)Cl)O
Summary of the method: as §1

[3] = compound: C1=CC(=CC=C1C2=NC3=C(N2)C=C(C=C3)C(=O)N)OC4=CC=C(C=C4)Cl
Summary of the method: as §1

[4] = compound: C1=CC2=C(C=CC(=C2)/C=C\3/C(=O)NC(=NCC4=CC=CS4)S3)N=C1
Summary of the method: as §1

[5] = compound: C1=CC=C(C=C1)C2=NC(=C(N2)C3=CC=NC=C3)C4=CC(=C(C=C4)Cl)O
Summary of the method: as §1

[6] = compound: C1=CC=C2C(=C1)C3=NNC4=CC=CC(=C43)C2=O
Summary of the method: as §1

[7] = compound: C1CCN(C1)C(=O)NC2=CC=CC(=C2)NC3=NC=C(C(=N3)NCCC4=CN=CN4)Br
Summary of the method: as §1

[8] = compound: C1CN(CCC1(CC2=CC=C(C=C2)Cl)N)C3=NC=NC4=C3C=CN4
Summary of the method: as §1

[9] = compound: C1COCCN1CCN2C3=CC=CC=C3N=C2NC(=O)C4=CC(=CC=C4)[N+](=O)[O-] [IRAK-1-4 Inhibitor I]
Summary of the method: as §1

[10] = compound: CC(=O)c1cnc2ccc(-c3cc(Cl)c(O)c(Cl)c3)nc2c1N[C@H]1CC[C@H](CN(C)C)CC1
Summary of the method: as §1

[11] = compound: CC(C)(C)Cn1c(N)nc2ccc(-c3[nH]c(C(C)(C)C)nc3-c3ccc(F)cc3)nc21 [ralimetinib]
Summary of the method: as §1

[12] = compound: CC(C)C1=C2N=C(C=C(N2N=C1)NCC3=CC=CC=C3)NCCCCCCN
Summary of the method: as §1

[13] = compound: CC(C)C[C@@H](C=O)NC(=O)[C@H](CC(C)C)NC(=O)[C@H](CC(C)C)NC(=O)OCc1ccccc1
Summary of the method: as §1

[14] = compound: CC(C)N(C[C@H]1O[C@@H](n2cnc3c(N)ncnc32)[C@H](O)[C@@H]1O)[C@H]1C[C@@H](CCc2nc3cc(C(C)(C)C)ccc3[nH]2)C1 [pinometostat]
Summary of the method: as §1

[15] = compound: CC1=C(C2=C(C=C1)C(=O)C3=CC=CC=C3N2CCCN)C
Summary of the method: as §1

[16] = compound: C1=CC(=C(C=C1Cl)C2=NC3=NC=CN=C3C(=N2)NC4=CC=NC=C4)F
Summary of the method: as §1

[17] = compound: C1=CC2=NC=CN=C2C=C1/C=C/3\C(=O)NC(=O)S3
Summary of the method: as §1

[18] = compound: C=CC(=O)N1CCC[C@@H](n2nc(-c3ccc(Oc4ccccc4)cc3)c3c(N)ncnc32)C1 [ibrutinib]
Summary of the method: as §1

[19] = compound: CC(C)(O)CC(=O)NCCn1ccc2ncnc(Nc3ccc(Oc4cccc(C(F)(F)F)c4)c(Cl)c3)c21
Summary of the method: as §1

[20] = compound: CC1=C(C(CC(=O)N1)C2=CC=C(C=C2)C(F)(F)F)C(=O)NC3=C(C=C4C(=C3)C=NN4)F
Summary of the method: as §1

Measured: log2 fold change

RUFY3 isoform 3 (UniProt Q7L099)
inactive: [1] 0.019 | [2] 0.012 | [3] -0.03 | [4] -0.028 | [5] 0.011 | [6] 0.065 | [7] -0.075 | [8] -0.07 | [9] -0.008 | [10] 0.023 | [11] 0.196 | [12] -0.098 | [13] -0.054 | [14] 0.035 | [15] 0.044

SDR39U1 (UniProt Q9NRG7)
inactive: [1] 0.855 | [2] 0.127 | [16] 0.376 | [3] 0.172 | [4] 1.03 | [17] -0.003 | [6] 0.143 | [7] 0.643 | [8] 0.202 | [18] 0.437 | [10] 0.01 | [19] -0.001 | [12] -0.707 | [20] -0.163 | [15] 0.094

RUNX1 isoform 8 (UniProt Q01196)
inactive: [1] 0.122 | [2] 0.081 | [16] -0.03 | [3] 0.048 | [4] -0.001 | [17] 0.032 | [5] 0.131 | [6] -0.033 | [9] -0.102 | [18] 0.058 | [10] -0.207 | [11] -0.043 | [19] -0.138 | [12] -0.184 | [13] 0.082 | [14] 0.069

SDHB, A0A087WWT1
inactive: [1] 0.04 | [2] -0.069 | [16] 0.019 | [3] -0.096 | [4] 0.257 | [17] 0.134 | [5] -0.251 | [6] -0.03 | [9] 0.034 | [18] -0.025 | [10] -0.105 | [11] -0.139 | [19] 0.053 | [12] 0.142 | [13] 0.14 | [14] -0.026

S100A14 (UniProt Q9HCY8)
inactive: [1] 0.404 | [2] -0.164 | [3] -0.892 | [4] 0.069 | [17] -0.364 | [5] -0.136 | [6] -0.191 | [7] -0.056 | [8] -0.531 | [18] -0.039 | [10] -0.231 | [11] 0.093 | [12] -0.002 | [13] -0.24 | [20] -0.529 | [15] 0.836
